Measured values reported in US20230303817A1, “BLENDED POLYVINYL ALCOHOL DRUG DELIVERY SYSTEMS” (The University of British Columbia, priority 2020, published 2023).
At least one structure is not confirmed: it was looked up by name or label, or the drawing left a doubt.

Assay: Release of other therapeutic agents from blended PVA cast films or electrospun membranes
Assay type: physicochemical
Details: electrospun membranes 35:65, 45:55 or 55:45 PVA 99%:88%, 1% doxycycline, over 10 days
Experimental: Films or electrospun membrane were manufactured as described above containing either docetaxel, doxycycline, gentamicin or bovine serum albumin (BSA; as a protein model for any “biological” based drug such as an antibody). […] Gentamicin was analyzed using a fluorescence tag assay using Fluoraldehyde™ (Thermo Fisher) and BSA protein release was assayed using a BCA protein analysis kit.

Question: For `C[C@H]1c2cccc(O)c2C(=O)C2=C(O)[C@]3(O)C(=O)C(C(N)=O)=C(O)[C@@H](N(C)C)[C@@H]3[C@@H](O)[C@@H]21` [doxycycline], which drug release is on record?
Answer: 12-16%
